About 7,700 (2.3%) of roughly 330,000 compounds were called active. This list was built around the results that the source calls inconclusive (neither active nor inactive); the mix of calls is not that of the screen. The call rests on the fitted dose curve; in most records, active means well fitted inhibition curve with a large enough effect; inconclusive means small, poorly fitted or top-dose-only effect, or effect the other way; inactive means flat fitted curve, though single readings scatter. A potency beside an inconclusive call is a rough fit, not a confirmed value.
test: qHTS screen for small molecules that inhibit ELG1-dependent DNA repair in human embryonic kidney (HEK293T) cells expressing luciferase-tagged ELG1; conditions: HEK293T ELG1-luciferase reporter, luminescence, 16 h, DNA damage induced by 5-fluorouridine; series mostly up to 46.1 µM; further: nearly all actives have a fitted effect of over 55% in size
Summary of the method: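 Luminescence from the luciferase reporter, measured 30 min after ONE-Glo reagent at room temperature, was the read-out. Beforehand, 2,000 cells per well were exposed for 16 hr at 37 °C to 5-fluorouridine together with compound or vehicle.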
Potency means the concentration at half of the fitted maximal effect.

Structure (SMILES) | Potency
O=C1CCC/C1=C/Nc1ccc(Cl)cc1 | inconclusive: 16.4 µM [activator, partial curve]
COc1ccc(OC)c(C2NC(=O)NC(C)=C2C(=O)OCc2ccccc2)c1 (stereo unspecified) | inactive
Fc1ccccc1Sc1ccccc1CNC1=NCCN1 | inconclusive: 10.3 µM [inhibitor, partial curve, poor fit]
CCOc1ccc(N=C(NN)c2ccc3ccccc3n2)cc1 | inconclusive: 7.31 µM [activator, partial curve]
CCOC(=O)C1(CCCc2ccccc2)CCN(C(=O)CN2CCOC2=O)CC1 | inactive
CN=c1scc(-c2ccccc2F)n1/N=C/c1ccc(O)c(O)c1O | inconclusive: 0.82 µM [activator, full curve]
COc1ccc(NC(=O)Cc2ccccc2)cc1 | inconclusive: 18.4 µM [activator, partial curve]
O=C(c1ccco1)N1CCN(c2c(-c3ccccc3)c3cc(Cl)ccc3[nH]c2=O)CC1 | inconclusive: 23.1 µM [inhibitor, single point]
COc1cccc(NC(=O)c2sc(Cl)nc2C)c1 | inconclusive: 14.6 µM [activator, partial curve, poor fit]
COc1ccc(C2C(Oc3ccccc3)C(=O)N2c2cc(C)ccc2C)cc1OC (stereo unspecified) | inconclusive: 18.4 µM [inhibitor, partial curve]
NC(=O)c1ccsc1NC(=O)COC(=O)c1ccc([N+](=O)[O-])o1 | inactive
C=C(C)c1cccc(C(C)(C)NC(=O)Nc2ccc(C)cn2)c1 | inactive
CCOc1ccc(S(=O)(=O)N(CC(=O)NC2CCCCC2C)Cc2ccco2)cc1 (stereo unspecified) | inconclusive: 23.1 µM [inhibitor, partial curve, poor fit]
COc1cccc(C(=O)CSc2nnc(-c3ccco3)n2CC2CCCO2)c1 (stereo unspecified) | inactive
COc1cccc(-c2cc(C(=O)NCc3ccco3)no2)c1 | inconclusive: 9.2 µM [activator, partial curve]
COc1ccc(-c2cc(C(=O)OCC(=O)Nc3ccc4c(c3)OCO4)c3ccccc3n2)cc1 | inconclusive: 23.1 µM [inhibitor, single point]
O=C(CCN1CCN(Cc2ccccc2)CC1)Nc1cccc(Br)c1 | inactive
Cn1c(=O)n(Cc2ccc(F)cc2)c(=O)c2c1nc1n2CCCN1Cc1ccccc1 | active: 20.6 µM
CN(C)CCCNc1ncnc2c1cnn2-c1ccccc1 | inconclusive: 23.1 µM [activator, partial curve]
CCCc1nc(SCC(=O)c2ccccc2)c2c(=O)n(C)c(=O)n(C)c2n1 | inconclusive: 23.1 µM [inhibitor, single point]
CN(C)CCN=c1cc(-c2ccccc2)oc2ccc(Cl)cc12 | inconclusive: 16.4 µM [activator, partial curve]
Cc1ccccc1-n1c(-c2ccncc2)n[nH]c1=S | inactive
CCOc1ccc(NC(=O)COC(=O)CNC(=O)c2ccc(-c3ccccc3)cc2)cc1 | inactive
COc1cc(NC(=O)COc2ccccc2)c(OC)cc1NC(C)=O | inactive

Structure (SMILES) | Potency
CC(=O)c1cccc(N/C=C\c2nnnn2-c2ccc(F)cc2)c1 | inconclusive: 20.6 µM [activator, single point]
Cc1c(/C=C/C(=O)c2cccs2)cnn1C | inconclusive: 13 µM [activator, partial curve]
O=C(NC(=O)N1CCN(c2ccc([N+](=O)[O-])cn2)CC1)c1c(Cl)cccc1Cl | inactive
C=CCNC(=O)/C(C#N)=C/c1c(C)nn(-c2ccc(Cl)cc2)c1Cl | inactive
COc1ccc(C(=O)C2CCCN(Cc3ccc(C#CCCO)cc3)C2)cc1F (stereo unspecified) | inconclusive: 23.1 µM [inhibitor, single point]
CCn1nc(NC(=O)c2ccncc2)c2cc3ccccc3nc21 | inconclusive: 29.1 µM [inhibitor, partial curve, poor fit]
Cn1c(C(=O)N2CCCc3ccccc32)cc2c(=O)n3ccccc3nc21 | inconclusive: 29.1 µM [inhibitor, single point]
Cc1ccc2nc(SCC(=O)N3CCOCC3)[nH]c2c1 | inconclusive: 16.4 µM [activator, partial curve]
COCc1cc(/C=N\NC(=O)Cc2ccc(Cl)cc2)ccc1OC | inconclusive: 25.9 µM [inhibitor, partial curve, poor fit]
O=C(Nc1ccc(Cl)cc1)OCc1ccccn1 | inconclusive: 10.3 µM [activator, partial curve]
O=C(COC(=O)/C=C/c1ccccc1Cl)NC1CCCC1 | inactive
Cc1cc(C)cc(NC(=O)COC(=O)COc2cccc3c2OC(C)(C)C3)c1 | inactive
O=C(/C=C/c1ccco1)NC(=S)Nc1cccc(-c2nc3ccccc3o2)c1 | inconclusive: 4.61 µM [inhibitor, partial curve, poor fit]
O=C(NCc1ccc(F)cc1)c1cccc(S(=O)(=O)N2CCCC2)c1 | inconclusive: 1.16 µM [inhibitor, single point]
COc1cc(/C=N/Nc2ccccc2[N+](=O)[O-])ccc1OC(=O)c1ccccc1F | inconclusive: 4.61 µM [activator, partial curve]
COc1ccc(N=Cc2nc(-c3ccccc3)oc2OC(=O)c2ccccc2)cc1 | inconclusive: 14.6 µM [activator, partial curve]
COc1ccc(C(=O)NC2CCN(C(=S)Nc3ccc(C)c(C)c3)CC2)cc1 | inconclusive: 29.1 µM [inhibitor, single point]
CC(=O)Nc1ccc(CNC(=O)C[N+]2(C)CCOCC2)cc1 | inactive
Cc1ccc(-c2nc3cccnc3s2)cc1NS(C)(=O)=O | inconclusive: 2.91 µM [activator, single point]
CCCCC(=O)N=c1sc2cc([N+](=O)[O-])ccc2n1C | inconclusive: 20.6 µM [activator, single point]
CC(C)c1ccc(NC(=O)CSc2nc(=O)n(CCCN3CCOCC3)c3c2CCCC3)cc1 | inactive
O=C(C[n+]1cc(-c2ccccc2)n2c1CCC2)N1c2ccccc2Sc2ccccc21 | inactive
O=C(c1cn[nH]c1)N1CCc2c([nH]c3ccccc23)C1c1c(F)cccc1Cl (stereo unspecified) | inactive
O=S(=O)(c1ccc(-c2csc(=Nc3ccccc3)n2CCCN2CCOCC2)cc1)N1CCOCC1 | inactive

Structure (SMILES) | Potency
Cc1cc2c(cc1S(=O)(=O)CCC(=O)NC1CCC(C)CC1)OCC(=O)N2 (stereo unspecified) | inactive
COC(=O)c1sc(-c2ccc(Cl)cc2)cc1NC(=O)COCC(=O)O | inactive
COCCNC(=O)C(c1ccncc1)N(C(=O)c1sc(C)nc1C)c1cccc(C)c1 (stereo unspecified) | inconclusive: 16.4 µM [activator, single point]
CCCCN(C(=O)CSc1ncnc2sccc12)c1c(N)n(Cc2ccccc2)c(=O)[nH]c1=O | inconclusive: 29.1 µM [inhibitor, single point]
COc1cccc(CNC(=O)CSCc2cnn(-c3ccccc3)c2-n2cccc2)c1 | inconclusive: 25.9 µM [inhibitor, single point]
COc1ccc(N2CCN(C(=S)Nc3ccccc3)CC2)cc1 | inactive
Cc1ccc(NC(=O)Cc2ccc([N+](=O)[O-])cc2)c(Br)c1 | inconclusive: 29.1 µM [activator, single point]
Cc1ccc2c(c1)c1c(n2CC(O)Cn2c(C)nc3ccccc32)CCCC1 (stereo unspecified) | inactive
CCOc1ccc(Cl)cc1/C=N/NC(=O)c1ccccc1 | inactive
COc1cc(C(=O)NCCc2c[nH]c3ccccc23)ccc1OCc1c(C)noc1C | inconclusive: 29.1 µM [inhibitor, single point]
CC(=O)c1sc(N/N=C2\CC3CC2C(C)C3(C)C)nc1C (stereo unspecified) | inconclusive: 6.51 µM [activator, full curve]
CCCCC(CC(O)COCC(C)C)C(=O)NNC(=S)Nc1ccccc1 (stereo unspecified) | inconclusive: 23.1 µM [activator, partial curve, poor fit]
CC(=O)C1=C(O)C(=O)N(c2cccc(C(=O)O)c2)C1c1ccc(F)cc1 (stereo unspecified) | inconclusive: 29.1 µM [activator, single point]
CC(=O)Nc1ccc(NC(=O)c2ccc(COc3ccccc3Br)o2)cc1 | inactive
CCCCCC(=O)NC(=S)Nc1cccc(C(C)=O)c1 | inconclusive: 14.6 µM [activator, partial curve, poor fit]
Cc1cc(Cl)c(S(=O)(=O)N2CCN(c3ccc(F)cc3)CC2)cc1OCC(=O)NC1CCCCC1 | active: 8.2 µM
O=C(O)c1ccc(-n2cc(-c3cc4ccccc4oc3=O)[nH]c2=S)cc1 | inconclusive: 7.3 µM [activator, partial curve, poor fit]
Cc1ccc(C(=O)/C=C/Nc2ccccc2C(N)=O)cc1 | inconclusive: 0.92 µM [activator, partial curve]
COc1cc(NC(=O)c2ccc(C(=O)c3ccccc3)cc2)cc(OC)c1OC | inconclusive: 23.1 µM [inhibitor, single point]
COc1ccc(C(=O)N/N=C\c2coc3ccc(Cl)cc3c2=O)cc1 | inconclusive: 25.9 µM [inhibitor, single point]
COc1ccc(/C=C/C(=O)OCC(=O)Nc2ccc3[nH]c(=O)[nH]c3c2)cc1OC | inactive
O=C(CSc1nnc(NC(=O)c2c(F)cccc2F)s1)NCc1ccco1 | inconclusive: 6.51 µM [activator, single point]
O=C(Nc1cc(S(=O)(=O)N2CCOCC2)ccc1N1CCOCC1)c1cccc(S(=O)(=O)N2CCCCC2)c1 | inconclusive: 14.6 µM [inhibitor, partial curve]

Arranged by molar mass (falling): some entries from above.
Structure (SMILES) | Potency
COc1cccc(CNC(=O)CSCc2cnn(-c3ccccc3)c2-n2cccc2)c1 | inconclusive: 25.9 µM [inhibitor, single point]
COc1cc(C(=O)NCCc2c[nH]c3ccccc23)ccc1OCc1c(C)noc1C | inconclusive: 29.1 µM [inhibitor, single point]
COc1ccc(/C=C/C(=O)OCC(=O)Nc2ccc3[nH]c(=O)[nH]c3c2)cc1OC | inactive
CCCCC(CC(O)COCC(C)C)C(=O)NNC(=S)Nc1ccccc1 (stereo unspecified) | inconclusive: 23.1 µM [activator, partial curve, poor fit]
COc1cc(NC(=O)c2ccc(C(=O)c3ccccc3)cc2)cc(OC)c1OC | inconclusive: 23.1 µM [inhibitor, single point]
